Where “and” joins values, the source holds several entries; their conditions need not be identical. Equal entries are not always repeated. The name of at least one read-out is uncertain.
Legend:
[1] = system: lymphocytic leukemia P388; test: Lymphocytic leukemia P388 test (intraperitoneal administration); assay type: in vivo, DBA/2 mice; conditions: positive control
Description: The animals used are DBA/2 mice all of one sex, weighing a minimum of 17 g. and all within a 3 gram weight range. There are 5 or 6 animals per test group. The tumor transplant is by intraperitoneal injection of 0.1 ml. of dilute ascitic fluid containing 10^6 cells of lymphocytic leukemia P388. The test compounds are administered intraperitoneally on days one, 5 and 9 (relative to tumor inoculation) at various doses. The animals are weighed and survivors are recorded on a regular basis for 30 days. The median survival time and the ratio of survival time for treated (T)/control (C) animals are calculated.

[2] = system: melanotic melanoma B16; test: Melanotic Melanoma B16 test; assay type: in vivo, C57BC/6 mice; conditions: positive control
Description: The animals used are C57BC/6 mice, all of the same sex, weighing a minimum of 17 g. and all within a 3-g. weight range. There are normally 10 animals per test group. A one-gram portion of melanotic melanoma B16 tumor is homogenized in 10 ml. of cold balanced salt solution and a 0.5-ml. aliquot of the homogenate is implanted intraperitoneally into each of the test mice. The test compounds are administered intraperitoneally on days one through 9 (relative to tumor inoculation) at various doses. The animals are weighed and survivors are recorded on a regular basis for 60 days. The median survival time and the ratio of survival time for treated (T)/control (C) animals are calculated. […] The criterion for efficacy is T/C×100≥125%.

O=c1[nH]cc(F)c(=O)[nH]1 [5-Fluorouracil, reference compound]
Median Survival Time ([1]; 40 mg./kg. injection): 18.0 days and 17.0 days and 17.5 days and 16.0 days | Median Survival Time ([1]; 60 mg./kg. injection): 19.5 days and 17.0 days and 18.5 days and 20.0 days and 18.0 days and 20.5 days and 19.0 days | Median Survival Time ([2]; 20 mg./kg. injection): 25.0 days and 26.0 days and 26.5 days and 30.0 days and 27.0 days and 16.5 days and 27.5 days | Median Survival Time ([2]; 60 mg./kg. injection): 23.0 days and 25.0 days

From patent US4526989A, “1,4-Bis (substituted-amino)-5,8-dihydroxy-anthraquinones and leuco bases thereof” (priority 1979, dated 1985)
